Assay [1] concerns the target T1, Sentrin/SUMO-specific protease 1 (human (endogenous in H1299)) (UniProt Q9P0U3).
T1 sequence: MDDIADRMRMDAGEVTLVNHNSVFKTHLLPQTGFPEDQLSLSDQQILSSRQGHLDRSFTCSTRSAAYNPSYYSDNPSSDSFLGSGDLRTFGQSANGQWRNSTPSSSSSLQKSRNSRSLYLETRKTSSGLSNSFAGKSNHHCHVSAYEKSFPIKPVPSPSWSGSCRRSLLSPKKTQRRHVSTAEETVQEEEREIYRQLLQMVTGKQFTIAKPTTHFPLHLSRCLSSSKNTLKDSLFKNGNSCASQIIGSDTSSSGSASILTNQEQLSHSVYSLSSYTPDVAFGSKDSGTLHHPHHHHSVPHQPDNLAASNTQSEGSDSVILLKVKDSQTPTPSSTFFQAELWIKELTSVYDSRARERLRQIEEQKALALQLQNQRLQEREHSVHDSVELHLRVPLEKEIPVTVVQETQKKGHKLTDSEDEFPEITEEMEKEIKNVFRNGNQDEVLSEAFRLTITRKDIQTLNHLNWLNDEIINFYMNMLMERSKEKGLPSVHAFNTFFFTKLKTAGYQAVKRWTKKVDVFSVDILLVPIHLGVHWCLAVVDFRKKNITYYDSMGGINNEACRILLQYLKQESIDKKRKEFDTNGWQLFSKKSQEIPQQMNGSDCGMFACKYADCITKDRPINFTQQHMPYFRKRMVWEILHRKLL
Nature of the assay: co-IP; whole cell lysate (1 mg, RIPA buffer) of HIF-1α-overexpressing H1299 cells without chloramphenicol; capture antibody against HIF-1α or SENP-1 (1 μg/mL) overnight at 4 °C, protein A magnetic beads, immunoblot.

Chains of the proteins cited; added tags and fusions are not shown.
UniProt Q16665: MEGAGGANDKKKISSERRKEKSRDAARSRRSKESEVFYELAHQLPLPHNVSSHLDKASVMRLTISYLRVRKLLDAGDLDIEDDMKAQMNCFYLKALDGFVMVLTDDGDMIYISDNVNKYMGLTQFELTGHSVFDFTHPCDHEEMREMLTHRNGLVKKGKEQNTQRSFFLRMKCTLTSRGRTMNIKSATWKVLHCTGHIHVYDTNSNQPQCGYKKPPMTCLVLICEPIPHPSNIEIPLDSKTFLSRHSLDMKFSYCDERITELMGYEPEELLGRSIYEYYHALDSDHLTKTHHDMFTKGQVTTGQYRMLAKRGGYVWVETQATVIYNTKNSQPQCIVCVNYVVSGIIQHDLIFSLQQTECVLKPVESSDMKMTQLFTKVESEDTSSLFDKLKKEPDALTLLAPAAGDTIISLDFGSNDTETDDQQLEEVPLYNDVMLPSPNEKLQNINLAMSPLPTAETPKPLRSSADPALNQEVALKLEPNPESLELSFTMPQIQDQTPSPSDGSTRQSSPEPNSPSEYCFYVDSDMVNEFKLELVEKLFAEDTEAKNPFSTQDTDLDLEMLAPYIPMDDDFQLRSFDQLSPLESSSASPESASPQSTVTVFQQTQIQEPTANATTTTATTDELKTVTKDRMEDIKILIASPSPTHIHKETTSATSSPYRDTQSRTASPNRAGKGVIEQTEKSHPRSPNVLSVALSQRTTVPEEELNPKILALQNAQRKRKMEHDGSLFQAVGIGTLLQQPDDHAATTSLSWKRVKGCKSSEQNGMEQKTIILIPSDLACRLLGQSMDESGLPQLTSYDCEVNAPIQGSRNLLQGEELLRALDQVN

For assay [2], the target named is T1, Sentrin/SUMO-specific protease 1 (human (endogenous in H1299)). Nature of the assay: condition: only cells treated with chloramphenicol and bafilomycin A1; co-IP; HIF-1α-overexpressing H1299 cells co-incubated with chloramphenicol and bafilomycin A1 before lysis; capture with anti-HIF-1α or anti-SENP-1, immunoblot (Figure 6C).

These are yes or no findings as the source states them, for the method shown. Binding seen in cells or lysates may run through a third protein. Some entries that bind do so weakly or less than the wild type.

Consider “hypoxia inducible factor-1 alpha (from UniProt Q16665 1-826)”, for which the binding result in assay [1] is listed as “binds”; in assay [2], “no binding”.

(Values after PMC6337541.)
